Record: PubChem BioAssay AID1224829 (NIAID, 2016)

Purpose: 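Secondary check of hits that alter LPS-induced p65 translocation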 (follow-up of hits)
Cells: mouse RAW264.7 G9 macrophage reporter cells
Knock-down reagent: single siRNA against mouse genes, 100 nM
Duration: 2 days of siRNA knock-down, then 40 min of LPS before fixing
Treatment: LPS (Salmonella minnesota R595) at 10 ng/ml
Measured: 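Imaging of GFP-p65 after 40 min of LPS; nuclear over perinuclear ring intensity ratio, scaled to plate median and non-targeting control wells, given as z-score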
Scale: p65 translocation z-score and gene median z-score, per vendor: higher = more nuclear NF-kappaB p65 after LPS
Active means: 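An siRNA is called active when the mean z-score of its two replicates is above 2 or below -2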
Meaning of the calls: active = changed p65 translocation (either direction); inactive = no clear change
Here is an unselected part of about 3,800 deposited reagents. 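Calls cover raised and lowered translocation; gene median uses one vendor's three siRNAs; qiagen siRNAs acted more weakly than ambion siRNAs.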 Unmarked entries are inactive.

gene symbol	PubChem SID	siRNA vendor or control pool	p65 translocation z-score, replicate mean	p65 translocation z-score, replicate 1	p65 translocation z-score, replicate 2	gene median z-score, per vendor
Mrps23	SID315486267	ambion single siRNA	-1.23	-2.27	-0.177	-1.23
Mrps23	SID315486268	ambion single siRNA	1.01	0.67	1.35	-1.23
Mrps23	SID315486269	ambion single siRNA	-5.12 (active)	-5.14	-5.09	-1.23
Mrps23	SID315486270	qiagen single siRNA	0.948	-0.0268	1.92	0.23
Mrps23	SID315486271	qiagen single siRNA	0.734	-0.208	1.68	0.23
Mrps23	SID315486272	qiagen single siRNA	-0.422	-1.33	0.487	0.23
Cadm1	SID315485739	ambion single siRNA	-5.6 (active)	-6.5	-4.7	-4.7
Cadm1	SID315485740	ambion single siRNA	-2.14 (active)	-1.83	-2.44	-4.7
Cadm1	SID315485741	ambion single siRNA	-7.87 (active)	-7.87		-4.7
Cadm1	SID315485742	qiagen single siRNA	3.53 (active)	2.52	4.53	2.57
Cadm1	SID315485743	qiagen single siRNA	3.21 (active)	2.62	3.79	2.57
Cadm1	SID315485744	qiagen single siRNA	0.806	0.235	1.38	2.57
Ifi30	SID315486318	ambion single siRNA	-4.87 (active)	-6.21	-3.53	-2.96
Ifi30	SID315486319	ambion single siRNA	-0.237	1.92	-2.39	-2.96
Ifi30	SID315486320	ambion single siRNA	-4.17 (active)	-6.31	-2.03	-2.96
Ifi30	SID315486321	qiagen single siRNA	-2.24 (active)	-1.57	-2.92	-1.37
Ifi30	SID315486322	qiagen single siRNA	1.14	-0.497	2.78	-1.37
Ifi30	SID315486323	qiagen single siRNA	-2.92 (active)	-4.67	-1.18	-1.37
Supt20	SID315485991	ambion single siRNA	-2.03 (active)	-0.845	-3.21	-3.15
Supt20	SID315485992	ambion single siRNA	-1.86	-0.644	-3.08	-3.15
Supt20	SID315485993	ambion single siRNA	-5.14 (active)	-5.53	-4.75	-3.15
Supt20	SID315485994	qiagen single siRNA	1.16	0.206	2.12	0.206
Supt20	SID315485995	qiagen single siRNA	0.183	-2.22	2.59	0.206
Supt20	SID315485996	qiagen single siRNA	-2.95 (active)	-2.95		0.206

A stretch from the list above:
gene symbol	PubChem SID	siRNA vendor or control pool	p65 translocation z-score, replicate mean	p65 translocation z-score, replicate 1	p65 translocation z-score, replicate 2	gene median z-score, per vendor
Mrps23	SID315486271	qiagen single siRNA	0.734	-0.208	1.68	0.23
Mrps23	SID315486272	qiagen single siRNA	-0.422	-1.33	0.487	0.23
Cadm1	SID315485739	ambion single siRNA	-5.6 (active)	-6.5	-4.7	-4.7
Cadm1	SID315485740	ambion single siRNA	-2.14 (active)	-1.83	-2.44	-4.7
Cadm1	SID315485741	ambion single siRNA	-7.87 (active)	-7.87		-4.7
Cadm1	SID315485742	qiagen single siRNA	3.53 (active)	2.52	4.53	2.57
Cadm1	SID315485743	qiagen single siRNA	3.21 (active)	2.62	3.79	2.57
Cadm1	SID315485744	qiagen single siRNA	0.806	0.235	1.38	2.57
Ifi30	SID315486318	ambion single siRNA	-4.87 (active)	-6.21	-3.53	-2.96

The list goes on:
gene symbol	PubChem SID	siRNA vendor or control pool	p65 translocation z-score, replicate mean	p65 translocation z-score, replicate 1	p65 translocation z-score, replicate 2	gene median z-score, per vendor
Dffa	SID315484038	ambion single siRNA	1.68	2.8	0.559	-1.62
Dffa	SID315484039	ambion single siRNA	-4.17 (active)	-3.41	-4.93	-1.62
Dffa	SID315484040	ambion single siRNA	-1.62	-1.8	-1.43	-1.62
Dffa	SID315484041	qiagen single siRNA	-2.42 (active)	-4.53	-0.306	-0.576
Dffa	SID315484042	qiagen single siRNA	1.23	-0.33	2.79	-0.576
Dffa	SID315484043	qiagen single siRNA	-1.75	-0.821	-2.67	-0.576
Zfp825	SID315488439	ambion single siRNA	-3.89 (active)	-3.89		-2.38
Zfp825	SID315488440	ambion single siRNA				-2.38
Zfp825	SID315488441	ambion single siRNA	-2.24 (active)	-2.1	-2.38	-2.38
Zfp825	SID315488442	qiagen single siRNA	1.63	1.08	2.18	0.678
Zfp825	SID315488443	qiagen single siRNA	0.544	0.409	0.678	0.678
Zfp825	SID315488444	qiagen single siRNA	-4.12 (active)	-4.12		0.678
Cog3	SID315489039	ambion single siRNA	-1.33	-1.33		-1.54
Cog3	SID315489040	ambion single siRNA	-8 (active)	-7.91	-8.08	-1.54
Cog3	SID315489041	ambion single siRNA	0.817	3.18	-1.54	-1.54
Cog3	SID315489042	qiagen single siRNA	1.12	0.0865	2.15	0.115
Cog3	SID315489043	qiagen single siRNA	1.77	0.143	3.39	0.115
Cog3	SID315489044	qiagen single siRNA	-1.59	-1.09	-2.09	0.115
Grap	SID315486639	ambion single siRNA				-2.24
Grap	SID315486640	ambion single siRNA	-3.85 (active)	-3.85		-2.24
Grap	SID315486641	ambion single siRNA	-2.04 (active)	-2.24	-1.84	-2.24
Grap	SID315486642	qiagen single siRNA	1.66	0.418	2.91	-0.0528
Grap	SID315486643	qiagen single siRNA	0.0301	0.583	-0.523	-0.0528
Grap	SID315486644	qiagen single siRNA	-2.01 (active)	-2.56	-1.46	-0.0528
Krtap19-1	SID315487956	ambion single siRNA	-4.18 (active)	-3.47	-4.88	-2.07
Krtap19-1	SID315487957	ambion single siRNA	-2.01 (active)	-1.64	-2.39	-2.07
Krtap19-1	SID315487958	ambion single siRNA	-0.744	0.264	-1.75	-2.07
Krtap19-1	SID315487959	qiagen single siRNA	-0.435	-1.92	1.05	-0.113
Krtap19-1	SID315487960	qiagen single siRNA	-0.075	0.21	-0.36	-0.113
Krtap19-1	SID315487961	qiagen single siRNA	-0.324	0.133	-0.782	-0.113
